Results are given in words; binding and its absence hold for the method and conditions named. In cells and extracts the contact can be indirect. These calls come from enrichment with a bait or labelling near it, and not all partners need be listed. For some of these results: Where a sequence is shown, tags or fusion partners need not be part of it.
Columns and labels:
[1] = target: T1, Ssf1-3xFLAG-3C-2xProteinA (S. cerevisiae) (UniProt P38789); test: affinity purification with mass spectrometry; split-tag purification of pre-60S particles from steady state DBP10 yeast: IgG Sepharose on Ssf1-2xProteinA, 3C cleavage, then Strep-Tactin on 2xStrep-Dbp10, desthiobiotin elution; buffers with 50 µM ADP-BeF3; Coomassie-stained 4-20% SDS-PAGE, bands named by molecular weight, ambiguous bands by mass spectrometry
T1 sequence: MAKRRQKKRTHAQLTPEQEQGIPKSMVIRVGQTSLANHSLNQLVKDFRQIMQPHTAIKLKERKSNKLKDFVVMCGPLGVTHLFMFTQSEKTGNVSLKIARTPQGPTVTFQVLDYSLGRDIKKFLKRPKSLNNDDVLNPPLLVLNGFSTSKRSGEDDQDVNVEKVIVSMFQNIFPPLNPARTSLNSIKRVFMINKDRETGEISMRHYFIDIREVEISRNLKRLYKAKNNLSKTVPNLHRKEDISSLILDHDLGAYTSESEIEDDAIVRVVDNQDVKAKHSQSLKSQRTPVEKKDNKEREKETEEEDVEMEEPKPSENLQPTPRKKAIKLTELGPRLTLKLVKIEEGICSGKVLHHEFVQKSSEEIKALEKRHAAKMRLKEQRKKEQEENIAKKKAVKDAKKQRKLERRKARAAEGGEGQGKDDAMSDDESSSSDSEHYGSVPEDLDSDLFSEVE

[2] = target: T2, Dbp10 (2xStrep-bdNEDD8-DBP10) (S. cerevisiae) (UniProt Q12389); test: as above
T2 sequence: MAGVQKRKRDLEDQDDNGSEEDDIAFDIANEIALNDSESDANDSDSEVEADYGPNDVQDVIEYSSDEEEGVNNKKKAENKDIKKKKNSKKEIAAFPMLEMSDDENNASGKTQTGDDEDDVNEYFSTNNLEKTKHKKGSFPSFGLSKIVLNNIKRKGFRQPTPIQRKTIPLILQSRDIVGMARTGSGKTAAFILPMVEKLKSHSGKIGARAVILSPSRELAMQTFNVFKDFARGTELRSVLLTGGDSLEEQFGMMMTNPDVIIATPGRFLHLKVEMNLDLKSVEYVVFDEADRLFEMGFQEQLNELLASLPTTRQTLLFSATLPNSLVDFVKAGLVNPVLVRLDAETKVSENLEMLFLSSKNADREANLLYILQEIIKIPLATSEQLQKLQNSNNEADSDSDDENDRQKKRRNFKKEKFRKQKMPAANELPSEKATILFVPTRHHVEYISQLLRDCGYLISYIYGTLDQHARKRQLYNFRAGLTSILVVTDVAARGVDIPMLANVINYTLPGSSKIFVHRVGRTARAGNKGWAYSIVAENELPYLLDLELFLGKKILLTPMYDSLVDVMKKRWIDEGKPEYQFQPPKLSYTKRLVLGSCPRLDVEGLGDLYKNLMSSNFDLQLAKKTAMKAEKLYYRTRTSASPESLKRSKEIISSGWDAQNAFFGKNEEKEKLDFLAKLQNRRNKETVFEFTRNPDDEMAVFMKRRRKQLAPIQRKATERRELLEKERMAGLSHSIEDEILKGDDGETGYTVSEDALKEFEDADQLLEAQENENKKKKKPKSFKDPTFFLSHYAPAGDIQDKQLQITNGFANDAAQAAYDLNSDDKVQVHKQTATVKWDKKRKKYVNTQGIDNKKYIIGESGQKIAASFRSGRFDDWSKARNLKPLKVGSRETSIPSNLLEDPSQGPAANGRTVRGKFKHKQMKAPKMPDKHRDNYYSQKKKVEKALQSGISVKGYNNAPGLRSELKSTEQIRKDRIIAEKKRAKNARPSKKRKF

[3] = target: T3, Noc2-3xFLAG-3C-2xProteinA (S. cerevisiae) (UniProt P39744); test: affinity purification with mass spectrometry; split-tag purification of pre-60S particles from SPB4-AID yeast without and with auxin (0.5 mM IAA, 45 min): IgG Sepharose on Noc2-2xProteinA, 3C cleavage, then Strep-Tactin on 2xStrep-Dbp10; buffers with 50 µM ADP-BeF3; Coomassie-stained 4-20% SDS-PAGE, bands named by molecular weight, ambiguous bands by mass spectrometry; auxin gave ~10-fold enrichment of the particle
T3 sequence: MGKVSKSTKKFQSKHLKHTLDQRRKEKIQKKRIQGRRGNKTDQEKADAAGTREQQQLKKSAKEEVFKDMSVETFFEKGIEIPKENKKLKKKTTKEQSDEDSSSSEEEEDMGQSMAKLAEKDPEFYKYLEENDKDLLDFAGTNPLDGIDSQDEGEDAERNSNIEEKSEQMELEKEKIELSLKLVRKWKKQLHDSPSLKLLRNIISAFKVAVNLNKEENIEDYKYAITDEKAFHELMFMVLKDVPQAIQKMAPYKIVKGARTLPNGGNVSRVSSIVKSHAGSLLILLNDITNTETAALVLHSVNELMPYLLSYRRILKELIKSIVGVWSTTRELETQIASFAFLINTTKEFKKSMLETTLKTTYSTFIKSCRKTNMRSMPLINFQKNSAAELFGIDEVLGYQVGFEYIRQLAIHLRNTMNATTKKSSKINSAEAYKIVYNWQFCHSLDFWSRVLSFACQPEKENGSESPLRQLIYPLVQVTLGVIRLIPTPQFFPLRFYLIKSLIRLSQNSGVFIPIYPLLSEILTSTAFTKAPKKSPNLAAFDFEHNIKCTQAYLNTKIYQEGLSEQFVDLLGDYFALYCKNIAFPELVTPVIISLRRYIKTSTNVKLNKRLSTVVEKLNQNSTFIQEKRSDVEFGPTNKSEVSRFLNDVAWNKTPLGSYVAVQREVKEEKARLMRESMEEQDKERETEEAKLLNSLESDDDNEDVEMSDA

[4] = target: T2, Dbp10 (2xStrep-bdNEDD8-DBP10) (S. cerevisiae); test: as above

- binding [1]: binds
- binding [2]: binds
- binding [3]: binds
- binding [4]: binds
B1: Cic1 (protein, UniProt P38779 1-376)
chain: MAKKSNSKKSTPVSTPSKEKKKVIEKKSSTAIPRERVIKAVNELIKFTSKPQDENNEEGNNGKKNLLEDDEEELKKDLQLIVVNNKSFTGTSKSFKLKLLNVKHSFYKPWKEASATAVKDFKVLLILKDSDIKKVSEDDLFDQLDSEGIKVDEIICGKDLKTVYKAYEARNAFISQFSLILADDSIVTSLPKLMGGKAYNKVETTPISIRTHANKEFSLTTLTNNIKKVYMNQLPVKLPRGTTLNVHLGNLEWLRPEEFVDNVELISEQLIKAYQIRSIFIKTNRSPVLPLYYNQDVLDELEAKKDKIEETHEDDMVTIDGVQVHLSTFNKGLMEIANPSELGSIFSKQINNAKKRSSSELEKESSESEAVKKAKS

Reference: article PMC11024185
